Measurements reported in PubChem BioAssay AID1224828 (NIAID, 2016).
This is one part, drawn at random, of about 17,000 deposited reagents. 762 of all reagents (4.5%) were called active. 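Active calls include both raised and lowered p65 entry, mostly lowered; wells with fewer than 50 cells lack a z-score.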 Raw values vary from plate to plate and are shown uncorrected.

- Assay: 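Find genes required for NF-kappaB p65 moving into the nucleus after LPS in mouse macrophages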 (primary screen)
- Cell system: mouse RAW264.7 G9 macrophage reporter cells (GFP-p65, Tnf promoter-mCherry)
- Knock-down reagent: siRNA pool against mouse genes, 100 nM
- Time to read-out: 2 days siRNA transfection, then 40 min LPS before fixation
- Challenge: LPS (Salmonella minnesota R595) at 10 ng/ml
- Detection: 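Microscopy ratio of nuclear to perinuclear-ring GFP-p65 signal, scaled to the plate median; gene score is the average of two replicate robust z-scores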
- Reading the numbers: p65 translocation robust z-score: higher = more nuclear NF-kappaB p65 after LPS than the plate median; nuclear/cytoplasmic p65 ratio: higher = more nuclear NF-kappaB p65
- Active means: 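Active if robust z is above 3.3 (negative regulators) or below -1.56, the Tlr4 control median (positive regulators); activity score 50 or more; control wells not called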
- Meaning of the calls: active = hit (p65 shift raised or lowered); inactive = no clear change

Knock-down of Psg21 (pregnancy-specific beta-1-glycoprotein 21) gave: p65 translocation robust z-score 2.48; nuclear/cytoplasmic p65 ratio, rep 1 = 1.78; nuclear/cytoplasmic p65 ratio, rep 2 = 1.43; low cell count flag enough cells to score; inactive.
Lman2 (lectin, mannose-binding 2) showed p65 translocation robust z-score -0.17; nuclear/cytoplasmic p65 ratio, rep 1 = 1.64; nuclear/cytoplasmic p65 ratio, rep 2 = 1.56; low cell count flag enough cells to score; inactive.
Knock-down of Or5k17 (olfactory receptor family 5 subfamily K member 17) resulted in: p65 translocation robust z-score -1.61; nuclear/cytoplasmic p65 ratio, rep 1 = 1.36; nuclear/cytoplasmic p65 ratio, rep 2 = 1.21; low cell count flag enough cells to score; active.
Gfra3 showed p65 translocation robust z-score -0.23; nuclear/cytoplasmic p65 ratio, rep 1 = 1.38; nuclear/cytoplasmic p65 ratio, rep 2 = 1.36; low cell count flag enough cells to score; inactive.
After knock-down of Klk1b9 (kallikrein 1-related peptidase b9), the screen gave nuclear/cytoplasmic p65 ratio, rep 1 = 1.38; nuclear/cytoplasmic p65 ratio, rep 2 = 1.58; low cell count flag fewer than 50 cells per well; well left out of scoring; inactive.
For Ndufab1 (NADH:ubiquinone oxidoreductase subunit AB1) the deposit lists p65 translocation robust z-score -0.21; nuclear/cytoplasmic p65 ratio, rep 1 = 1.81; nuclear/cytoplasmic p65 ratio, rep 2 = 1.51; low cell count flag enough cells to score; inactive.
Silencing of Stx16 (syntaxin 16) resulted in: p65 translocation robust z-score -1.02; nuclear/cytoplasmic p65 ratio, rep 1 = 1.28; nuclear/cytoplasmic p65 ratio, rep 2 = 1.28; low cell count flag enough cells to score; inactive.
Against Il1rap (interleukin 1 receptor accessory protein), the values are p65 translocation robust z-score 0.37; nuclear/cytoplasmic p65 ratio, rep 1 = 1.53; nuclear/cytoplasmic p65 ratio, rep 2 = 1.43; low cell count flag enough cells to score; inactive.
Or5ar1 (olfactory receptor family 5 subfamily AR member 1) showed p65 translocation robust z-score -2.75; nuclear/cytoplasmic p65 ratio, rep 1 = 1.3; nuclear/cytoplasmic p65 ratio, rep 2 = 1.12; low cell count flag enough cells to score; active.
Against Keap1 (kelch-like ECH-associated protein 1), the values are nuclear/cytoplasmic p65 ratio, rep 1 = 1.57; nuclear/cytoplasmic p65 ratio, rep 2 = 1.82; low cell count flag fewer than 50 cells per well; well left out of scoring; inactive.
For Cpsf2 (cleavage and polyadenylation specific factor 2), the values are nuclear/cytoplasmic p65 ratio, rep 1 = 1.39; nuclear/cytoplasmic p65 ratio, rep 2 = 1.5; low cell count flag fewer than 50 cells per well; well left out of scoring; inactive.
After knock-down of Tph2 (tryptophan hydroxylase 2), the record shows nuclear/cytoplasmic p65 ratio, rep 1 = 1.24; nuclear/cytoplasmic p65 ratio, rep 2 = 1.15; low cell count flag fewer than 50 cells per well; well left out of scoring; inactive.
Depletion of Ugt3a2 (UDP glycosyltransferases 3 family, polypeptide A2) gave: p65 translocation robust z-score -1.47; nuclear/cytoplasmic p65 ratio, rep 1 = 1.33; nuclear/cytoplasmic p65 ratio, rep 2 = 1.51; low cell count flag enough cells to score; inactive.
For Hepacam2 (HEPACAM family member 2) the deposit lists p65 translocation robust z-score -0.24; nuclear/cytoplasmic p65 ratio, rep 1 = 1.59; nuclear/cytoplasmic p65 ratio, rep 2 = 1.62; low cell count flag enough cells to score; inactive.
After knock-down of Def6 (differentially expressed in FDCP 6), the screen gave p65 translocation robust z-score -0.33; nuclear/cytoplasmic p65 ratio, rep 1 = 1.42; nuclear/cytoplasmic p65 ratio, rep 2 = 1.61; low cell count flag enough cells to score; inactive.
Or2t46 (olfactory receptor family 2 subfamily T member 46) showed p65 translocation robust z-score -2.66; nuclear/cytoplasmic p65 ratio, rep 1 = 1.17; nuclear/cytoplasmic p65 ratio, rep 2 = 1.11; low cell count flag enough cells to score; active.
Silencing of Oma1 (OMA1 zinc metallopeptidase) came out at: nuclear/cytoplasmic p65 ratio, rep 1 = 1.36; nuclear/cytoplasmic p65 ratio, rep 2 = 1.15; low cell count flag fewer than 50 cells per well; well left out of scoring; inactive.
Knock-down of Tmem63c (transmembrane protein 63c) resulted in: p65 translocation robust z-score 1.3; nuclear/cytoplasmic p65 ratio, rep 1 = 1.61; nuclear/cytoplasmic p65 ratio, rep 2 = 1.71; low cell count flag enough cells to score; inactive.
Against Prpf6 (pre-mRNA splicing factor 6), the values are nuclear/cytoplasmic p65 ratio, rep 1 = 1.1; nuclear/cytoplasmic p65 ratio, rep 2 = 1.08; low cell count flag fewer than 50 cells per well; well left out of scoring; inactive.
For Spen (spen family transcription repressor) the deposit lists p65 translocation robust z-score -0.69; nuclear/cytoplasmic p65 ratio, rep 1 = 1.15; nuclear/cytoplasmic p65 ratio, rep 2 = 1.26; low cell count flag enough cells to score; inactive.
After knock-down of Mrgprg (MAS-related GPR, member G), the screen gave p65 translocation robust z-score -0.63; nuclear/cytoplasmic p65 ratio, rep 1 = 1.68; nuclear/cytoplasmic p65 ratio, rep 2 = 1.5; low cell count flag enough cells to score; inactive.
